Test results from PMC13254535, “The RecBCD complex interacts directly with the DNA sliding clamp in Escherichia coli” (Nucleic Acids Research, 2026).
No constants are given. Whether binding was seen depends on the method and setting.

By UniProt entry, the sequences of proteins in these tests, tags left out. Where a name states a change or a piece, a line headed by the entry shows the natural chain unless it says otherwise.
UniProt P0A988: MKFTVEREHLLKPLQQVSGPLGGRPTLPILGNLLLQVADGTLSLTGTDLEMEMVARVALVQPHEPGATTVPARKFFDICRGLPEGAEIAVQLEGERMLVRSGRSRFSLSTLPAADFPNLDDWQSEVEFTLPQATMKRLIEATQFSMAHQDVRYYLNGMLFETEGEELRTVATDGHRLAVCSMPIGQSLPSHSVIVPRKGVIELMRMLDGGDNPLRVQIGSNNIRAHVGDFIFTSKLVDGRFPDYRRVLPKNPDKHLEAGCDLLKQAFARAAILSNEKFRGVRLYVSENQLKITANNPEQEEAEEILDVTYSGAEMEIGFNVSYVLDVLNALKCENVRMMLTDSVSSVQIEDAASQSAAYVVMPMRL
UniProt P08394: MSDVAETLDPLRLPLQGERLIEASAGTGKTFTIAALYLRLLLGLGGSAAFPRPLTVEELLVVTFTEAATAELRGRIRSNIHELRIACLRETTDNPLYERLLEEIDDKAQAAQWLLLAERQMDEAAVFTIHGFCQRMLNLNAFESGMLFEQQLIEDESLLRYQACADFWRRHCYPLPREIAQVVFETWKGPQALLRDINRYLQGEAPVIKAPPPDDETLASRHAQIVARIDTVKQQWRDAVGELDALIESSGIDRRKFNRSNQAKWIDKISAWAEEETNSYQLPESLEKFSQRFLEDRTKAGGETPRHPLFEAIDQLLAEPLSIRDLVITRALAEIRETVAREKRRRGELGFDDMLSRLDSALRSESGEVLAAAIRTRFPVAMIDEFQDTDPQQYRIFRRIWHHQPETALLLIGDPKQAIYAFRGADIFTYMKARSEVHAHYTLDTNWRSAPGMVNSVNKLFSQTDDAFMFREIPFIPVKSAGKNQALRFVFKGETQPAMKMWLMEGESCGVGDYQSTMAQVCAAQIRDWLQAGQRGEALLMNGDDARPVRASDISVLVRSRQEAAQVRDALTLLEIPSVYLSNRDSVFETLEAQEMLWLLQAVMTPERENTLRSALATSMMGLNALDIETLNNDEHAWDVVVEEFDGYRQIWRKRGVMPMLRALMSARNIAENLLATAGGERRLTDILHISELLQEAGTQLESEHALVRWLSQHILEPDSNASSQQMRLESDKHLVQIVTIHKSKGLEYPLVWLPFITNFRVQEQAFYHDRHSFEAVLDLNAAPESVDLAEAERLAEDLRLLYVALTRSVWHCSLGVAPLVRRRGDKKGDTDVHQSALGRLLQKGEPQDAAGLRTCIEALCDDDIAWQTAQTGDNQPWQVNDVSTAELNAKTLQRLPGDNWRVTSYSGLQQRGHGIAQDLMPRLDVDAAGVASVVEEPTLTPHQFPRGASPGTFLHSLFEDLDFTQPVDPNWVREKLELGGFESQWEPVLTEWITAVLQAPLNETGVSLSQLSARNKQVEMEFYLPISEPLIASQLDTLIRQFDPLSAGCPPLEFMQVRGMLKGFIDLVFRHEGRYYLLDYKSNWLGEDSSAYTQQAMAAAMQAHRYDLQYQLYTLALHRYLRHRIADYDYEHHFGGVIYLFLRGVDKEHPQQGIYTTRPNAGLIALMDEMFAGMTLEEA

Biological target: β-clamp (DnaN)-T25 fusion from pKT25-dnaN (Escherichia coli) (UniProt P0A988)
Test: two-hybrid; BACTH, qualitative X-gal spot (blue/white) assay on LB agar with IPTG and X-gal, 30°C, 2-3 days; an identical plate exposed to UV 15 J/m^2

For “RecB_(Δheli F1023A)–T18 fusion (from UniProt P08394) (domain or fragment)”, the binding was “no binding”.
